Data as given in PubChem BioAssay AID1259405 (NCATS, 2018).

- Screen: 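Silenced genes that increase secreted GFP made by CHO cells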 (primary screen)
- Cells: Chinese hamster CHO-K1 ovary cells with stable secreted eGFP expression
- Knock-down reagent: single siRNA against mouse genes, 0.8 pmol siRNA per well (2 µl of 400 nM stock)
- Timing: 3 days
- Read-out: 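Percent of the per-plate non-targeting control median for intracellular GFP per well by laser scanning cytometry and for cell viability by ATP luminescence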
- Scale: GFP, % of control: higher = more GFP per well, higher productivity
- Call rule: 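Called active when intracellular GFP, relative to negative control, is at or above 120%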
This is one part, drawn at random, of about 50,000 deposited reagents. In the full data, about 4,000 (8%) got an active call. 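Mouse siRNA library applied to hamster cells; one well for each siRNA.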 Reagents against one gene are numbered here. Further read-outs or replicates are left out here.

GFP, % of control, by target gene and reagent
Traf6 (GeneID 22034): #1 99.6 inactive; #2 106 inactive; #3 92.3 inactive
Npm3 (GeneID 18150): #1 82.3 inactive; #2 94.7 inactive
Serinc4 (GeneID 574418): #1 61.7 inactive; #2 76.7 inactive; #3 101 inactive
Pmaip1 (GeneID 58801): #1 96.1 inactive; #2 71 inactive; #3 69.5 inactive
Mdc1 (GeneID 240087): #1 128 active; #2 67.8 inactive; #3 73.3 inactive
Clec18a (GeneID 353287): #1 54.5 inactive; #2 65.2 inactive; #3 63.8 inactive
E330013P04Rik (GeneID 107376): #1 89.7 inactive; #2 118 inactive; #3 76.3 inactive
Entrep3 (GeneID 68521): #1 93.1 inactive; #2 83.8 inactive; #3 90.9 inactive
Ptgis (GeneID 19223): #1 90.6 inactive; #2 43.2 inactive; #3 91 inactive
Pramel3c (GeneID 331529): #1 85.9 inactive; #2 57.4 inactive; #3 62.8 inactive
Kbtbd3 (GeneID 69149): #1 52.5 inactive; #2 87.1 inactive; #3 79.2 inactive
Asb9 (GeneID 69299): #1 119 inactive; #2 56.1 inactive; #3 75.6 inactive
Cox6a1 (GeneID 12861): #1 31.3 inactive; #2 67.9 inactive; #3 78 inactive
Pcdh7 (GeneID 54216): #1 107 inactive; #2 38.7 inactive; #3 76 inactive
Or4f14d (GeneID 258737): #1 81 inactive; #2 76.1 inactive; #3 53.2 inactive
Npl (GeneID 74091): #1 87 inactive; #2 118 inactive; #3 70.9 inactive
Rbbp7 (GeneID 245688): #1 69.2 inactive; #2 94.8 inactive; #3 74.7 inactive
Pacsin3 (GeneID 80708): #1 75 inactive; #2 70.8 inactive
Or10ak14 (GeneID 258259): #1 64.2 inactive; #2 77.8 inactive; #3 67.7 inactive
Htr1d (GeneID 15552): #1 65.2 inactive; #2 92.7 inactive; #3 59.9 inactive

Hits, among the entries above:
GFP, % of control, by target gene and reagent
Mdc1 (GeneID 240087): #1 128 active
